Most values lie at the floor of the assay. Slopes are relative: functional sequences can read slightly below zero.

The source of these data is the supplement of paper PMC5949888.

The test system of this data set is Saccharomyces cerevisiae PS128 hsf1 delta, HSF1(1-493) fusion. Nature of the data set: growth estimate (transactivation domain function in HSF1 fusion, heat-shock survival) (a.u. (slope of normalised read count over time)); higher = stronger growth at 37°C, i.e. more transactivation activity. To be noted: library: random library. The procedure:
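Random 60-nt DNA library encoding peptides of up to 20 aa, fused to the C-terminus of yeast HSF1 residues 1-493 (C-terminal TAD deleted) and expressed from the native HSF1 promoter on a CEN plasmid in hsf1-deleted S. cerevisiae PS128. Cells were selected at 37°C on -trp 5-FOA plates for 0, 2, 4, 6 and 8 days and amplicons were sequenced. Growth estimate is the slope of a robust linear fit of total-sum-normalised read counts (normalised to the first time point) over time, using at least 2 replicates. Sequences are classed functional (TAD activity) above a threshold of -0.13, set from stop-codon control sequences.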
For the substance PTLLTI, the growth estimate is below -0.25.
Take ASGDNGGSIGKLAISSLKGY: the growth estimate was below -0.25.
Consider SFECIYVDGNDGSVGRAPSW, for which the growth estimate was -0.195.
As for RKVQQRCSSSKAGTV, the growth estimate is below -0.25.
Turning to SSEGEMI, the growth estimate is below -0.25.
For the substance TGVTKLRKE, the growth estimate was below -0.25.
Consider NTQGMRGTFRKFREARGLA, for which the growth estimate is below -0.25.
As for EPSIVSPEGFQARDNYTFMR, the growth estimate was below -0.25.
Take DRGKIMIAGCRSGTALSKRL: the growth estimate was below -0.25.
For SCCVAQEITDRQPPIVGIVV, the growth estimate was below -0.25.
Regarding ITGTLPRAMSY, the growth estimate is below -0.25.
On to PTGVDFWELW, for which the growth estimate is below -0.25.
As for LIDDNES, the figure is below -0.25; as for CTAWCEVGKYHHDTV, below -0.25; as for YQA, -0.246.
In the case of FGSLEASDMV, the growth estimate is -0.243.
RRVGGWS: the growth estimate is below -0.25.
Consider FRCQGECVSRPLVATRRVL, for which the growth estimate was below -0.25.
Turning to DYPATAPLANQ, the growth estimate is below -0.25.
As to PIVWLRQFK, the growth estimate was -0.203.
As for VGSQFCKNVVLSAPSLVSRY, the figure is below -0.25; as for SEQCFRSKWGMRNSKPKRAL, below -0.25.
In the case of RMRRADHAPGCYW, the growth estimate was below -0.25.
To AVFMGGLKGLG belongs below -0.25; to TVKRGCAGTYGSPILGGPST, below -0.25.
With VGMDSVMSARVSLCRQAKGT, the growth estimate is below -0.25.
Turning to GSIVSDLLSRPFGGYNVTGT, the growth estimate was below -0.25.
As for RAFSADIQSGAPGGNIFSSD, the figure is below -0.25; as for QLCV, below -0.25.
IGQWSNAERLTPYHTQASDS: the growth estimate is below -0.25.
IGTV: the growth estimate was below -0.25.
To GSRSVWTDIVRAHLRLCSIS belongs -0.243; to AAQIRVGLVRPQRG, below -0.25; to NLCLSHAEGSYLRLTGAQQL, below -0.25.
As for VRLYEDVTGISKGTVAGVDG, the figure is below -0.25.
In the case of GIKLRAVSLQRVQAW, the growth estimate was below -0.25.
TWEALAKRVCLWRPWWTTCQ: the growth estimate is below -0.25.
For the substance PVLDPTSAHENKRASAQTGS, the growth estimate is below -0.25.
In the case of SLVILPGPARSVFPRYGSG, the growth estimate was below -0.25.
Consider DRPVLGGSRLLLAHALVGSR, for which the growth estimate is below -0.25.
Take DAPTVWPLSGRV: the growth estimate is below -0.25.
Regarding QADRFRCQKTLDSMATCRRP, the growth estimate was below -0.25.
As for VKMRPLCPEYV, the growth estimate was below -0.25.
As for SDEDRLYRSA, the figure is below -0.25; as for HAWTT, below -0.25.
For the substance RFRPLADGWLYLRYNVGDRP, the growth estimate is below -0.25.
In the case of FPRGCWIGCFNHADASELDY, the growth estimate is below -0.25.
To SNCQADRLCCTLGLIICYAP belongs below -0.25; to LPCHFAERLRAKSPTTKSSS, below -0.25.
For HWSLSVTGRSSSARRARSGA, the growth estimate is below -0.25.
As for HFRVIQEAP, the figure is below -0.25; as for GPACKFNRFLQIALVACPPA, below -0.25; as for KQCGHSTSSRKCDSRCIYIC, below -0.25.
Regarding NRAAMTLTHSLVDR, the growth estimate is below -0.25.
Take QRGPRRSFYARQNLTTRGSV: the growth estimate is below -0.25.
Take RQTQLWCRVSAAYFWWRIV: the growth estimate is -0.239.
To LDALGVRTRKAAAND belongs below -0.25; to LRSDPWTVSHQGCD, below -0.25; to SCRANKASQIRQWRLVAQYS, below -0.25.
As for KSPYKISCQPALCGALWVRR, the figure is below -0.25.
As to PSY, the growth estimate was 0.263.
As to SRSEAPPAF, the growth estimate is below -0.25.
IRTTTD: the growth estimate was below -0.25.
Regarding RLRGEGS, the growth estimate is below -0.25.
On to RGDASPHRVVSGLPRVGVRH, for which the growth estimate is below -0.25.
For SGRGSIACLQSTSESGYRR, the growth estimate was below -0.25.
In the case of ECAPDYAEEGDLALSPEAHS, the growth estimate is below -0.25.
With SAPAEHLGPLKAVFYRVPWQ, the growth estimate is below -0.25.
For the substance RLGVCGEIGHQAGINSPIGV, the growth estimate is below -0.25.
Consider PGRMKGAR, for which the growth estimate is below -0.25.
For the substance ETFILPSRAVRAAGLLHM, the growth estimate is below -0.25.
LLDRSMDFP: the growth estimate is below -0.25.
As for GRIGMTLVECKRS, the figure is below -0.25.
As for TVPELT, the figure is below -0.25; as for LLG, below -0.25.
To GGYYIHQGEWVQEQS belongs below -0.25.
